Measurements reported in PubChem BioAssay AID504786 (Drosophila RNAi Screening Center, 2011)

- Test: 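Fly genes required for HIF-dependent transcription when hypoxia is mimicked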 (primary screen)
- Cells: Drosophila S2 cells with a stable HIF luciferase reporter
- Reagents: long dsRNA against Drosophila genes, about 0.2 µg dsRNA per well of a 384-well plate
- Duration: three days of knock-down, then 20 h of DFO before reading
- Challenge: desferrioxamine (DFO) at 100 µM, an iron chelator that mimics hypoxia, for 20 h
- Detection: 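Firefly luciferase driven by the mouse ldh-a hypoxia-response element, measured after 20 h of 100 µM DFO; z-scores per plate, higher means more signal lost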
- Scale: z-score: higher = stronger loss of HIF reporter signal
The screen tested about 21,000 reagents; this is a random part of those with a known target gene and a result. 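Primary screen; positive scores mean lost reporter signal, so the sign may be inverted from the usual convention.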 Names joined by + are all predicted targets of the reagent.

mus302 [SID104189697] | z-score, replicate 1: -0.2; z-score, replicate 2: 0.1
Hsp27 [SID104190982] | z-score, replicate 1: -0.4; z-score, replicate 2: -0.5
TpnC41C [SID104184708] | z-score, replicate 1: -0.2; z-score, replicate 2: 0
CG17784 [SID104195060] | z-score, replicate 1: 0; z-score, replicate 2: -0.3
Ir8a [SID104197609] | z-score, replicate 1: -0.2; z-score, replicate 2: -0.6
Ir8a [SID104197661] | z-score, replicate 1: -0.2; z-score, replicate 2: 0.1
ast [SID104180595] | z-score, replicate 1: -0.1; z-score, replicate 2: -0.3
Dsk [SID104192139] | z-score, replicate 1: -0.2; z-score, replicate 2: -0.4
Alr [SID104199261] | z-score, replicate 1: 0.3; z-score, replicate 2: 0.4
vsg [SID104190011] | z-score, replicate 1: 0.6; z-score, replicate 2: 1.1
Plod [SID104190393] | z-score, replicate 1: 0; z-score, replicate 2: -0.5
Plod [SID104190394] | z-score, replicate 1: -0.2; z-score, replicate 2: -0.5
Hem [SID104191657] | z-score, replicate 1: 0.1; z-score, replicate 2: 0.7
Nf-YC [SID104198064] | z-score, replicate 1: 1.4; z-score, replicate 2: 3.9
Osi18 [SID104191973] | z-score, replicate 1: -0.1; z-score, replicate 2: 0.5
Cyp6a21 [SID104187173] | z-score, replicate 1: -0.1; z-score, replicate 2: -0.3
Spindly [SID104180222] | z-score, replicate 1: 0.3; z-score, replicate 2: 1
CG2157 [SID104199628] | z-score, replicate 1: -0.2; z-score, replicate 2: -0.6
VhaM9.7-d [SID104194820] | z-score, replicate 1: -0.2; z-score, replicate 2: 1
fon [SID104182299] | z-score, replicate 1: -0.4; z-score, replicate 2: -0.5
CG14107 [SID104189902] | z-score, replicate 1: -0.1; z-score, replicate 2: 3.2
AIMP1 [SID104186910] | z-score, replicate 1: -0.4; z-score, replicate 2: -0.4
Tsp42Eq [SID104185972] | z-score, replicate 1: -0.2; z-score, replicate 2: -0.3
CG13748 [SID104186211] | z-score, replicate 1: -0.3; z-score, replicate 2: -0.1
CG10866 [SID104187963] | z-score, replicate 1: -0.3; z-score, replicate 2: -0.4
Utx [SID104182664] | z-score, replicate 1: -0.1; z-score, replicate 2: -0.2
ImpL1 [SID104190989] | z-score, replicate 1: -0.3; z-score, replicate 2: -0.4
His2B:CG33894 + His2B:CG33872 + His2B:CG33902 + 20 more [SID104201057] | z-score, replicate 1: 0.5; z-score, replicate 2: 0
Pex7 [SID104190443] | z-score, replicate 1: -0.2; z-score, replicate 2: 0.2
CG1971 [SID104195198] | z-score, replicate 1: -0.2; z-score, replicate 2: -0.5
Axud1 [SID104180062] | z-score, replicate 1: -0.1; z-score, replicate 2: -0.3
pnut [SID104187458] | z-score, replicate 1: -0.4; z-score, replicate 2: -0.8
PK2-R1 [SID104196239] | z-score, replicate 1: -0.4; z-score, replicate 2: -0.2
Mnn1 [SID104183160] | z-score, replicate 1: -0.3; z-score, replicate 2: -0.8
CG10969 [SID104189603] | z-score, replicate 1: -0.2; z-score, replicate 2: -0.5
CG32391 [SID104188657] | z-score, replicate 1: -0.1; z-score, replicate 2: 0.9
C901 [SID104199143] | z-score, replicate 1: 0.1; z-score, replicate 2: -1.2
CG15878 [SID104188278] | z-score, replicate 1: 0.2; z-score, replicate 2: 0.5
blo [SID104185729] | z-score, replicate 1: -0.4; z-score, replicate 2: 0
frma [SID104198089] | z-score, replicate 1: -0.3; z-score, replicate 2: -0.1
